PubChem BioAssay AID743121 – NCATS, 2013

Purpose: 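Genes whose silencing strengthens cell killing by camptothecin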 (primary screen)
System: MDA-MB-231 cells, a human breast cancer line
Reagent: single siRNA against human genes, 20 nM siRNA (0.8 pmol per well)
Timing: 120 h (drug added 48 h after transfection, read 72 h later)
Treatment: camptothecin 20 nM (about EC30) for 72 h; vehicle 0.1% DMSO in parallel plates
Measurement: 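CellTiter-Glo ATP signal, scaled to control siRNA as percent viability; sensitisation given as log2 of untreated divided by camptothecin-treated viability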
Scale: log2 vehicle/camptothecin viability: higher = stronger sensitisation to camptothecin; viability with camptothecin: higher = more viable cells
Active means: 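Each gene scored by redundant siRNA activity (RSA) over its individual siRNA ratios; a gene is called active at p < 0.001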
Here is one part, drawn at random, of about 26,000 deposited reagents. In the full data, 167 (0.63%) are marked active. 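Calls are per gene from RSA p-values that are not deposited; an individual active-marked siRNA can sensitise only weakly.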 The numbers tell different reagents against one gene apart. Not all columns of the deposit are shown.

| gene knocked down | reagent | log2 vehicle/camptothecin viability | viability with camptothecin (% of control) | outcome |
| --- | --- | --- | --- | --- |
| ZMYND8 | 1 | -0.14 | 116 | inactive |
| ZMYND8 | 2 | -0.00931 | 90.1 | inactive |
| ZMYND8 | 3 | -0.538 | 20.6 | inactive |
| ZMYND8 | 4 | -0.108 | 103 | inactive |
| HHIPL1 | 1 | -0.224 | 63 | inactive |
| HHIPL1 | 2 | -0.313 | 102 | inactive |
| HHIPL1 | 3 | -0.485 | 62.2 | inactive |
| HHIPL1 | 4 | -0.00551 | 84.8 | inactive |
| KCNH6 | 1 | -0.0855 | 97.4 | inactive |
| KCNH6 | 2 | -0.195 | 34.7 | inactive |
| KCNH6 | 3 | -0.557 | 45.9 | inactive |
| RNF7 | 1 | 0.267 | 68 | inactive |
| RNF7 | 2 | 0.0117 | 101 | inactive |
| RNF7 | 3 | -0.0175 | 85.5 | inactive |
| RNF7 | 4 | -0.235 | 111 | inactive |
| GLRX3 | 1 | -0.2 | 110 | inactive |
| GLRX3 | 2 | -0.451 | 90.4 | inactive |
| GLRX3 | 3 | -0.718 | 85.9 | inactive |
| BCL2L14 | 1 | -0.548 | 66.4 | inactive |
| BCL2L14 | 2 | -0.0789 | 48.2 | inactive |
| BCL2L14 | 3 | -0.111 | 86 | inactive |
| BCL2L14 | 4 | -0.248 | 35.8 | inactive |
| IFFO1 | 1 | -0.0555 | 81.2 | inactive |
| IFFO1 | 2 | 0.688 | 19.2 | inactive |
| IFFO1 | 3 | -0.416 | 71.3 | inactive |
| IFFO1 | 4 | -0.0103 | 63.8 | inactive |
| DEDD | 1 | -0.324 | 91.8 | inactive |
| DEDD | 2 | 0.246 | 49.7 | inactive |
| DEDD | 3 | -0.0402 | 90 | inactive |
| PAWR | 1 | -0.00572 | 84.7 | inactive |
| PAWR | 2 | -0.124 | 81.8 | inactive |
| PAWR | 3 | 0.249 | 68.7 | inactive |
| PAWR | 4 | -0.535 | 91.1 | inactive |
| MARVELD3 | 1 | -0.128 | 108 | inactive |
| MARVELD3 | 2 | -0.327 | 93.7 | inactive |
| MARVELD3 | 3 | -0.0835 | 85 | inactive |
| MARVELD3 | 4 | -1.02 | 51.2 | inactive |
| MARVELD3 | 5 | 0.146 | 73.5 | inactive |
| MARVELD3 | 6 | -0.216 | 94.3 | inactive |
| LTA | 1 | -0.031 | 101 | inactive |
| LTA | 2 | 0.0972 | 81.6 | inactive |
| LTA | 3 | 0.187 | 44.6 | inactive |
| TNK1 | 1 | -0.639 | 62 | inactive |
| TNK1 | 2 | -0.394 | 83.3 | inactive |
| TNK1 | 3 | -0.372 | 25.3 | inactive |
| TNK1 | 4 | -0.0562 | 95.5 | inactive |
| NAPSA | 1 | -0.153 | 82.5 | inactive |
| NAPSA | 2 | -0.302 | 50.3 | inactive |
| NAPSA | 3 | -0.468 | 34.2 | inactive |
| NAPSA | 4 | -0.259 | 54 | inactive |
| TREML2 | 1 | -0.41 | 70.6 | inactive |
| TREML2 | 2 | 0.93 | 36.3 | inactive |
| TREML2 | 3 | -0.135 | 31.2 | inactive |
| TREML2 | 4 | -0.352 | 90.9 | inactive |
| RAB14 | 1 | -0.0818 | 82.1 | inactive |
| RAB14 | 2 | 0.114 | 97 | inactive |
| RAB14 | 3 | 0.0715 | 92.1 | inactive |
| RAB14 | 4 | 0.158 | 68.3 | inactive |
| DLL4 | 1 | 0.353 | 47.9 | inactive |
| DLL4 | 2 | -0.206 | 60.1 | inactive |
| DLL4 | 3 | -0.384 | 88.8 | inactive |
| DLL4 | 4 | -0.025 | 96.8 | inactive |
| HERC1 | 1 | 0.00474 | 115 | inactive |
| HERC1 | 2 | -0.31 | 69 | inactive |
| HERC1 | 3 | 0.0102 | 87.7 | inactive |
| HERC1 | 4 | -0.0238 | 101 | inactive |
| TPH1 | 1 | -0.126 | 109 | inactive |
| TPH1 | 2 | -0.0483 | 87.3 | inactive |
| TPH1 | 3 | -0.449 | 47.3 | inactive |
| TPH1 | 4 | -0.621 | 69.5 | inactive |
| NTRK1 | 1 | -0.49 | 29.9 | inactive |
| NTRK1 | 2 | 0.165 | 73.5 | inactive |
| NTRK1 | 3 | -0.171 | 85.4 | inactive |
| NTRK1 | 4 | 0.103 | 65.8 | inactive |
| COPS5 | 1 | 0.166 | 66.3 | inactive |
| COPS5 | 2 | -0.00515 | 83 | inactive |
| COPS5 | 3 | 0.43 | 37.8 | inactive |
| COPS5 | 4 | 1.53 | 27 | inactive |
| PRSS58 | 1 | -0.265 | 44.9 | inactive |
| PRSS58 | 2 | -0.221 | 86.2 | inactive |
| PRSS58 | 3 | -0.348 | 85.8 | inactive |
| PRSS58 | 4 | -0.102 | 122 | inactive |
| CYP26B1 | 1 | 0.634 | 57.4 | active |
| CYP26B1 | 2 | -0.254 | 58.3 | active |
| CYP26B1 | 3 | 2.42 | 10.2 | active |
| CYP26B1 | 4 | -0.0651 | 101 | active |
| SLC7A9 | 1 | -0.0939 | 114 | inactive |
| SLC7A9 | 2 | 0.0938 | 77.9 | inactive |
| SLC7A9 | 3 | -0.1 | 99.6 | inactive |
| SLC7A9 | 4 | -0.22 | 129 | inactive |

Entries listed above called active:
| gene knocked down | reagent | log2 vehicle/camptothecin viability | viability with camptothecin (% of control) | outcome |
| --- | --- | --- | --- | --- |
| CYP26B1 | 1 | 0.634 | 57.4 | active |
| CYP26B1 | 2 | -0.254 | 58.3 | active |
| CYP26B1 | 3 | 2.42 | 10.2 | active |
| CYP26B1 | 4 | -0.0651 | 101 | active |
